Values quoted from earlier work, collected in patent US20150164901A1, “COMPOUNDS, COMPOSITIONS AND METHODS FOR TREATING OR PREVENTING NEURODEGENERATIVE DISORDERS” (President and Fellows of Harvard College, priority 2012, published 2015).
For at least one compound, name, drawing or mass did not settle the structure.

Test system: PI 3-kinases
Conditions: certain members of the class II PI 3-kinase family show decreased sensitivity; cited from earlier work

For `COC[C@H]1OC(=O)c2coc3c2[C@@]1(C)C1=C(C3=O)[C@@H]2CCC(=O)[C@@]2(C)C[C@H]1OC(C)=O` [wortmannin], which “inhibition of PI 3-kinases” value is on record?
The value was “inhibited”.

Which “inhibition of PI 3-kinases” value does the source give for `O=c1cc(N2CCOCC2)oc2c(-c3ccccc3)cccc12` [LY294002] here?
The value was “inhibited”.
